The chains are these.
T1: MX2-MUTT2A-TurboID (human) (UniProt P20592)
T1 sequence: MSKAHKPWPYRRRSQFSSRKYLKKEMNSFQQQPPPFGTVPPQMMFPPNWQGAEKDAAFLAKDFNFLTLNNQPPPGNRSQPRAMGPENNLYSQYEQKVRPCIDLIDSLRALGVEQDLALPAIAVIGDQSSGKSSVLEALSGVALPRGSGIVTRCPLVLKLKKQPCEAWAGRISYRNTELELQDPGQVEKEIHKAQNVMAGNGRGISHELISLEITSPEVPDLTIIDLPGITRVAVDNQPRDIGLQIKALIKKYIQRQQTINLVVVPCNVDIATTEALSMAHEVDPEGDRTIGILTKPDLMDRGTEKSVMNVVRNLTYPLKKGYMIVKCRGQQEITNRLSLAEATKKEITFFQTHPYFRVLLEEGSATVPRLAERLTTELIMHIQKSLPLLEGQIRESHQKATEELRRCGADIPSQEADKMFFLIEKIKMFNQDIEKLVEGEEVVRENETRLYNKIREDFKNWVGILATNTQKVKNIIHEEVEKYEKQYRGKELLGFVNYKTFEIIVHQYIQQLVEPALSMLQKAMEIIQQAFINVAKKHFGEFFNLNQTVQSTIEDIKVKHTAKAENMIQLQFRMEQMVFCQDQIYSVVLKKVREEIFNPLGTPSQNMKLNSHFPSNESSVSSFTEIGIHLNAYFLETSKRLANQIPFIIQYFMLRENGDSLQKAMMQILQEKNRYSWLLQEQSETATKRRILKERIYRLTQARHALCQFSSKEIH

The chains behind the UniProt entries cited, without tags or fusion partners.
UniProt Q8ND56: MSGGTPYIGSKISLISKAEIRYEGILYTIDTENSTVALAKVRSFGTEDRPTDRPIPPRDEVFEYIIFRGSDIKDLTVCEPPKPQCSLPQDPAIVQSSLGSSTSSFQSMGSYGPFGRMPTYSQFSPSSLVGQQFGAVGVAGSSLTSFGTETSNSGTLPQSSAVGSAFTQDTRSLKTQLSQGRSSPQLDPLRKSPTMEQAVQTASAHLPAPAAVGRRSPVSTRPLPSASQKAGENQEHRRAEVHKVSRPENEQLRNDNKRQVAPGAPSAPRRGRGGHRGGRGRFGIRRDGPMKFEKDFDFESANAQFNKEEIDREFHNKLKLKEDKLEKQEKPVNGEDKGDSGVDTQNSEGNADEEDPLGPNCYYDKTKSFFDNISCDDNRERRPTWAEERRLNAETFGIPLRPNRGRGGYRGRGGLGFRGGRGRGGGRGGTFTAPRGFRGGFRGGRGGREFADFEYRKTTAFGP
UniProt Q96I24: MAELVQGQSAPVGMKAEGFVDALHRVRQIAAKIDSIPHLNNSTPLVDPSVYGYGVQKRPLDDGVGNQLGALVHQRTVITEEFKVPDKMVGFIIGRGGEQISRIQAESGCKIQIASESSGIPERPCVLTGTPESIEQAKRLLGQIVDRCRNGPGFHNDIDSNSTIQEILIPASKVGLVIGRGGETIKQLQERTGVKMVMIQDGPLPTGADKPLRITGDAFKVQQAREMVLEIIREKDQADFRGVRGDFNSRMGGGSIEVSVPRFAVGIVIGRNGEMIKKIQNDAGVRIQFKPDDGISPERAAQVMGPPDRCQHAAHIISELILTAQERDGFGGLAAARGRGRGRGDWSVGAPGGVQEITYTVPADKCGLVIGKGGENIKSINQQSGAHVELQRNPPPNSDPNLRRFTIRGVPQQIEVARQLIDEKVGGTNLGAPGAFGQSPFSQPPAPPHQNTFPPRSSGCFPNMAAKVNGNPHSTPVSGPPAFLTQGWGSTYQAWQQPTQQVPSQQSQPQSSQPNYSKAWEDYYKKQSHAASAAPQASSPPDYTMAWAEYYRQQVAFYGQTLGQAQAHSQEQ
UniProt Q92973: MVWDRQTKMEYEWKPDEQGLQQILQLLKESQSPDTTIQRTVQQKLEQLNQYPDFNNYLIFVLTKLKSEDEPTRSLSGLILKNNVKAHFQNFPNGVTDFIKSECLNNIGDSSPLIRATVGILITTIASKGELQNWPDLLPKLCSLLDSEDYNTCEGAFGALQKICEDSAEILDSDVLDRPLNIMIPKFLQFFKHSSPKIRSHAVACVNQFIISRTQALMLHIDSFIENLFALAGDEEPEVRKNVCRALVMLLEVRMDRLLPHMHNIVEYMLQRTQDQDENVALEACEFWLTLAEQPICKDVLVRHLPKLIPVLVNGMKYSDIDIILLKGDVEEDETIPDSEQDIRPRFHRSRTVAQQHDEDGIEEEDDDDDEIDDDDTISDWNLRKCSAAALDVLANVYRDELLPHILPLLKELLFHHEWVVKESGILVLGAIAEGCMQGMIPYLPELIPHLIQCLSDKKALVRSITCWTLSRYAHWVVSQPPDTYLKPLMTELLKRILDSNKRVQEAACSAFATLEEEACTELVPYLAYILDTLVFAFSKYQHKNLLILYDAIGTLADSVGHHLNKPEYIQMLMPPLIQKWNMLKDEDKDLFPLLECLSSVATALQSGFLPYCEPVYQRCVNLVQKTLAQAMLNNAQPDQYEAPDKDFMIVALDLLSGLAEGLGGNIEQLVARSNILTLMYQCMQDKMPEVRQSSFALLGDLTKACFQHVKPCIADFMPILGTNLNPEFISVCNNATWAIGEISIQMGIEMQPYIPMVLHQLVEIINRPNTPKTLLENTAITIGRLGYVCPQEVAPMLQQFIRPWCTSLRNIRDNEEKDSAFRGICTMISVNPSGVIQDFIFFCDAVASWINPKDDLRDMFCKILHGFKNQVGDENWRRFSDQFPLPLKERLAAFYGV
UniProt Q96HA1: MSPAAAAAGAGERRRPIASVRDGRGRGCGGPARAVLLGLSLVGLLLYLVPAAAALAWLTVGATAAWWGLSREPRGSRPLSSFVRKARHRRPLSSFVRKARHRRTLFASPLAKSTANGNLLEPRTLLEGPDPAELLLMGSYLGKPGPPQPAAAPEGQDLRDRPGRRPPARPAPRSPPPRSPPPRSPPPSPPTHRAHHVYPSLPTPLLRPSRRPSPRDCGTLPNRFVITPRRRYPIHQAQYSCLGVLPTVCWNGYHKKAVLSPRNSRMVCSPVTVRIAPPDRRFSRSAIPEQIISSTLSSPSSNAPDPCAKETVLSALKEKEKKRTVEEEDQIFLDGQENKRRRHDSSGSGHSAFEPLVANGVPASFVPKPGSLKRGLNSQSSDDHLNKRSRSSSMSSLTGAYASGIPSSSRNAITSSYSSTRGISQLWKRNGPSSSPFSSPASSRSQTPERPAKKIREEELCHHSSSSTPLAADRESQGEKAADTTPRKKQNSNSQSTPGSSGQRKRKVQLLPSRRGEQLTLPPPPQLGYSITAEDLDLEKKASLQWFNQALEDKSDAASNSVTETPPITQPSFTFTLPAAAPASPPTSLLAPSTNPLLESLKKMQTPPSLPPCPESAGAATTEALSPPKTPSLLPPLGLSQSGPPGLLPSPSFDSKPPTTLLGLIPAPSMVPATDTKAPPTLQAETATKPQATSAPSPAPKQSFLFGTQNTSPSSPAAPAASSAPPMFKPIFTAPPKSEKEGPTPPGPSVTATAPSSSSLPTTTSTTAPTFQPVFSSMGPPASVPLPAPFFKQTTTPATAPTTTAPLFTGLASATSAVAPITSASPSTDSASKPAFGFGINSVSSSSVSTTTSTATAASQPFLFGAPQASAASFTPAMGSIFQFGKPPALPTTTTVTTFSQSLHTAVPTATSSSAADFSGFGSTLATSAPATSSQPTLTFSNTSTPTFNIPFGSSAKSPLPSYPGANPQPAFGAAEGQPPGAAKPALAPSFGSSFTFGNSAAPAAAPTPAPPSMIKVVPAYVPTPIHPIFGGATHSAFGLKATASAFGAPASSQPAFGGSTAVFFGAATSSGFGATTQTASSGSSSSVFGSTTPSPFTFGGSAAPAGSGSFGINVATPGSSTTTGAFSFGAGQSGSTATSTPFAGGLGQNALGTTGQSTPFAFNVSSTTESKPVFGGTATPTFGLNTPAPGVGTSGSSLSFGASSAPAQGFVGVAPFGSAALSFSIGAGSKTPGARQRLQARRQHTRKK
UniProt Q9BVL2: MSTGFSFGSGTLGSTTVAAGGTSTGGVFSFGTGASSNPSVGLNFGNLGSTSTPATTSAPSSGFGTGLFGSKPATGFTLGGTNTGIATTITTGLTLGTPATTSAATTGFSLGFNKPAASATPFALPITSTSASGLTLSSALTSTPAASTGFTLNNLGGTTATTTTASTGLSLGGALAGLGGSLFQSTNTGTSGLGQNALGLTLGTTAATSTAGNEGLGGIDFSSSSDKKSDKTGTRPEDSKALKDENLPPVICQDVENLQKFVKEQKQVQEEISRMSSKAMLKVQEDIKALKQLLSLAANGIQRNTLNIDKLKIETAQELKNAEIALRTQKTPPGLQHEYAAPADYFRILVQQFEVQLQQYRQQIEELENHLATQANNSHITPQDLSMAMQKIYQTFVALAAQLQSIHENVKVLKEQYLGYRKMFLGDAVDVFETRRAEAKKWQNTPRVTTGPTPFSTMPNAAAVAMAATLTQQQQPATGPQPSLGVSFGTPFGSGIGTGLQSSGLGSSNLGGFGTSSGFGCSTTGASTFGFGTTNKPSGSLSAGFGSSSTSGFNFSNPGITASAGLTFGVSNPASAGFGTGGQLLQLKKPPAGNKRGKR

B1: SAMD4B (protein, UniProt Q5PRF9 1-694)
chain: MMFRDQVGILAGWFKGWNECEQTVALLSLLKRVTRTQARFLQLCLEHSLADCNDIHLLESEANSAAIVSQWQQESKEKVVSLLLSHLPLLQPGNTEAKSEYMRLLQKVLAYSIESNAFIEESRQLLSYALIHPATTLEDRNALALWLSHLEERLASGFRSRPEPSYHSRQGSDEWGGPAELGPGEAGPGWQDKPPRENGHVPFHPSSSVPPAINSIGSNANTGLPCQIHPSPLKRSMSLIPTSPQVPGEWPSPEELGARAAFTTPDHAPLSPQSSVASSGSEQTEEQGSSRNTFQEDGSGMKDVPSWLKSLRLHKYAALFSQMSYEEMMTLTEQHLESQNVTKGARHKIALSIQKLRERQSVLKSLEKDVLEGGNLRNALQELQQIIITPIKAYSVLQATVAAATTTPTAKDGAPGEPPLPGAEPPLAHPGTDKGTEAKDPPAVENYPPPPAPAPTDGSEPAPAPVADGDIPSQFTRVMGKVCTQLLVSRPDEENITSYLQLIEKCLTHEAFTETQKKRLLSWKQQVLKLLRTFPRKAALEMQNYRQQKGWAFGSNSLPIAGSVGMGVARRTQRQFPMPPRALPPGRMGLLSPSGIGGVSPRHALTSPSLGGQGRQNLWFANPGGSNSMPSQSRSSVQRTHSLPVHSSPQAILMFPPDCPVPGPDLEINPTLESLCLSMTEHALGDGTDKTSTI
B2: FAM120C (protein, UniProt Q9NX05 1-1096)
chain: MGVQGFQEFLEKRCPGAVVPVDLLKLARTVSRQQQQQHLHRQLPPTAALAPGAPRAARGSVPLQPPLPPAALGAYSGGAGPTRHHHPAHHFHHHGQAQPGLHPPLPPPPPPQLPGARVLVDAGSALPRLYGGYQTDWVCGGQWNAMLGYLSALCQACAYPGGDGLELVVMFPGGLGKDRLAEWGRRCQAERQTAQLIVGHVGNKGTPPPRAWFLPPACLSHCVRLALIRFRVKVFQSLEDHHLEVVAFFRENGFHGLLAHDSEYALYNIPSYYSSHALKLSWNGKNLTTNQFLMQEVAKQLGLKRMNFPIFAALLGNHILPDEDLAAFHWSLLGPEHPLASLKVRAHQLVLPPCDVVIKAVSEYVSSIKDPSNLDVVGKDVFKQSQSRTEDKIERFKKAVEYYSVTTKLSSLPVGPSFLGFRNNRLGNPPLPRNQVGTISAGKPMFSHQVPQKVKYPPPFPVGPNSSLLFSSHALGESHAFSEDPMLQNSPFANWAVSYDSSASQFPNYLPSKASPPLGPDSSHSSSSDGDEPNGASSDHITEAFHHQPEWGNPNRDRGSWAQPVDTGVSEASLGDGEPHIPSLLSMSTRNHMDITIPPLPPVAPEVLRVAEHRHRRGLMYPYIYHVLTKGEIKIPVCIEDECNMELPPAALLFRSARQYVYGVLFSLAETQRKMERLAMRRRLPVEVPSVILKEWSAYKGKSPQTPELVSALTFREWTCPNLKKLWLGKAVEDKNRRMRAFLACMKSDTPSMLNPANVPTHLLLMCCVLRYMVQWPGGRILHRHELDTFLAQAVSTQLYEPDRLQELKIEKLDARGIQLAALFMSGVDTALFANDACGQPVPWEHCCPWIYFDGKLFQSKLIKAGRERVSLVELCDGQADLATKVEKMRQSILEGVNMNHPPPSALLPSPTFVPPMVPSLYPVSLYSRAMGSMPLPPQGRSRGFAGLHPIPPQGGKLEIAGMVVGQWAGSRSSRGRGSFGMQVVSVGGPGKGHGKEQTGRGSKGHKKGNKQGSSDGVSKSLELHQGRSRSQVNGNSGALIKEEKSDHRLPAPSQCALSRDSNECNNGNRYLPMNNREKNHLQEQKLETVAQRKED
B3: NUP107 (protein, UniProt P57740 1-925)
chain: MDRSGFGEISSPVIREAEVTRTARKQSAQKRVLLQASQDENFGNTTPRNQVIPRTPSSFRQPFTPTSRSLLRQPDISCILGTGGKSPRLTQSSGFFGNLSMVTNLDDSNWAAAFSSQRSGLFTNTEPHSITEDVTISAVMLREDDPGEAASMSMFSDFLQSFLKHSSSTVFDLVEEYENICGSQVNILSKIVSRATPGLQKFSKTASMLWLLQQEMVTWRLLASLYRDRIQSALEEESVFAVTAVNASEKTVVEALFQRDSLVRQSQLVVDWLESIAKDEIGEFSDNIEFYAKSVYWENTLHTLKQRQLTSYVGSVRPLVTELDPDAPIRQKMPLDDLDREDEVRLLKYLFTLIRAGMTEEAQRLCKRCGQAWRAATLEGWKLYHDPNVNGGTELEPVEGNPYRRIWKISCWRMAEDELFNRYERAIYAALSGNLKQLLPVCDTWEDTVWAYFRVMVDSLVEQEIQTSVATLDETEELPREYLGANWTLEKVFEELQATDKKRVLEENQEHYHIVQKFLILGDIDGLMDEFSKWLSKSRNNLPGHLLRFMTHLILFFRTLGLQTKEEVSIEVLKTYIQLLIREKHTNLIAFYTCHLPQDLAVAQYALFLESVTEFEQRHHCLELAKEADLDVATITKTVVENIRKKDNGEFSHHDLAPALDTGTTEEDRLKIDVIDWLVFDPAQRAEALKQGNAIMRKFLASKKHEAAKEVFVKIPQDSIAEIYNQCEEQGMESPLPAEDDNAIREHLCIRAYLEAHETFNEWFKHMNSVPQKPALIPQPTFTEKVAHEHKEKKYEMDFGIWKGHLDALTADVKEKMYNVLLFVDGGWMVDVREDAKEDHERTHQMVLLRKLCLPMLCFLLHTILHSTGQYQECLQLADMVSSERHKLYLVFSKEELRKLLQKLRESSLMLLDQGLDPLGYEIQL
B4: SAMD4A (endogenous) (protein, UniProt Q9UPU9 1-718)
chain: MMFRDQVGVLAGWFKGWNECEQTVALLSLLKRVSQTQARFLQLCLEHSLADCAELHVLEREANSPGIINQWQQESKDKVISLLLTHLPLLKPGNLDAKVEYMKLLPKILAHSIEHNQHIEESRQLLSYALIHPATSLEDRSALAMWLNHLEDRTSTSFGGQNRGRSDSVDYGQTHYYHQRQNSDDKLNGWQNSRDSGICINASNWQDKSMGCENGHVPLYSSSSVPTTINTIGTSTSTILSGQAHHSPLKRSVSLTPPMNVPNQPLGHGWMSHEDLRARGPQCLPSDHAPLSPQSSVASSGSGGSEHLEDQTTARNTFQEEGSGMKDVPAWLKSLRLHKYAALFSQMTYEEMMALTECQLEAQNVTKGARHKIVISIQKLKERQNLLKSLERDIIEGGSLRIPLQELHQMILTPIKAYSSPSTTPEARRREPQAPRQPSLMGPESQSPDCKDGAAATGATATPSAGASGGLQPHQLSSCDGELAVAPLPEGDLPGQFTRVMGKVCTQLLVSRPDEENISSYLQLIDKCLIHEAFTETQKKRLLSWKQQVQKLFRSFPRKTLLDISGYRQQRNRGFGQSNSLPTAGSVGGGMGRRNPRQYQIPSRNVPSARLGLLGTSGFVSSNQRNTTATPTIMKQGRQNLWFANPGGSNSMPSRTHSSVQRTRSLPVHTSPQNMLMFQQPEFQLPVTEPDINNRLESLCLSMTEHALGDGVDRTSTI

These are yes or no findings as the source states them, for the method shown. In cells and extracts the contact can be indirect. A yes stands for co-enrichment or nearness to the bait. Other partners may have been found.

The target in this assay is T1, MX2-MUTT2A-TurboID (human). The assay can be described thus: proximity labelling.
On to LSM14A (from UniProt Q8ND56 1-463), for which the binding entry is given as “binds”.

For FUBP3 (from UniProt Q96I24 1-572), the binding entry was “binds”.

For the molecule “TNPO1 (endogenous) (from UniProt Q92973 1-898)”, the binding result is “binds”. Regarding POM121 (from UniProt Q96HA1 1-1249), the binding entry is reported as “binds”. Under “NUP358/RANBP2 (from UniProt P49792 1-3224)” stands “binds”. Under “NUPL1(NUP58) (from UniProt Q9BVL2 1-599)” stands “binds”; under B1, “binds”.

With B2, the binding entry is on record as “binds”.

As to B3, the binding result is “binds”. Under B4 stands “binds”.
